Measured values as given in the supplement of paper PMC10849652.
The list shows a part of the results.

Amino acid sequences for entries named in this document (tags omitted). A change or cut given only in a name is not applied to a line headed by its entry.
UniProt P30153, whole entry, looked up: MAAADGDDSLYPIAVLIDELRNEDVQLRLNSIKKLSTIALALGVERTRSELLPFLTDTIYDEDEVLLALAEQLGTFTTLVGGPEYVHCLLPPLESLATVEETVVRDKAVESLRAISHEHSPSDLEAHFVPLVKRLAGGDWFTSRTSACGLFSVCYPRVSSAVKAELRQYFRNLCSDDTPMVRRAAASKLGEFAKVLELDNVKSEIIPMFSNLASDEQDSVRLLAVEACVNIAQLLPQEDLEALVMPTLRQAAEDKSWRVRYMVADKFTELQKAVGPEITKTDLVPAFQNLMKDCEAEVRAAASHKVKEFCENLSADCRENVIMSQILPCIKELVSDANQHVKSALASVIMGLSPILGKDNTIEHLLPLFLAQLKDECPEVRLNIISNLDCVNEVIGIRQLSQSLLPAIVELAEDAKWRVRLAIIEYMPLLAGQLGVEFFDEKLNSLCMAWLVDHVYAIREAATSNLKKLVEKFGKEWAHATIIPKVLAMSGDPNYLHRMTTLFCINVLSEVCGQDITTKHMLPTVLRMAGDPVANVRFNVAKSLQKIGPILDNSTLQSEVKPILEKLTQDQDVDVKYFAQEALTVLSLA
UniProt Q6NYC8: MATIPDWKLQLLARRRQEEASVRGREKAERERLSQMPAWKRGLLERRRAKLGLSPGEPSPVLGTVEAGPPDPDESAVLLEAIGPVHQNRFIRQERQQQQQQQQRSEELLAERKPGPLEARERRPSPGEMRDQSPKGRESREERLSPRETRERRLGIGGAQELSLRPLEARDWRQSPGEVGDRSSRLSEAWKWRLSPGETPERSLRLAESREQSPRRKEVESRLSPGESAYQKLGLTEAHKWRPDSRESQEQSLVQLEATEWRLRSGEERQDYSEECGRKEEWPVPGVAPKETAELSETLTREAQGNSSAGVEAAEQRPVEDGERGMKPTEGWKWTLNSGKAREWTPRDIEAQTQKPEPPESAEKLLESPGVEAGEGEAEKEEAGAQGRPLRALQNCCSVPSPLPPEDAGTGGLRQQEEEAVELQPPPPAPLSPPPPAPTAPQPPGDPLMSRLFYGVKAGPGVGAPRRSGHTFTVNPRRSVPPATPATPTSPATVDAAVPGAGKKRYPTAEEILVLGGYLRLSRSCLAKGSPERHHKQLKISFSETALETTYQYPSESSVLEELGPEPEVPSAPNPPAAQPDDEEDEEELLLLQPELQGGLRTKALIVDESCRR
UniProt Q13362, whole entry, looked up: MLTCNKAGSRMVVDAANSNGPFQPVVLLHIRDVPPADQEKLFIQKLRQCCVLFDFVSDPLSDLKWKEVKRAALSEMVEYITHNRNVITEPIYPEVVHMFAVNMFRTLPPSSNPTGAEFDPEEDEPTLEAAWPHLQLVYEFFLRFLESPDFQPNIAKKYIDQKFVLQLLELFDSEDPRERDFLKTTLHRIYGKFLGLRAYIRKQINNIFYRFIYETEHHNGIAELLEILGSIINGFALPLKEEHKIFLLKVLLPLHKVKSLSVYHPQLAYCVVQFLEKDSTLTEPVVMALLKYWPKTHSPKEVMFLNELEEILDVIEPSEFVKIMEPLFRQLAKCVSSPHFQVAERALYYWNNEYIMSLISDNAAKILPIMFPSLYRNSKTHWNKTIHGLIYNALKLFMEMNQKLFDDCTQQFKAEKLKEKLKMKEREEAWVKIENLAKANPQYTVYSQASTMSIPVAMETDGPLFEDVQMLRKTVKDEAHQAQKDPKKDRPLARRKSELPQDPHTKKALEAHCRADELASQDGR
UniProt O14974: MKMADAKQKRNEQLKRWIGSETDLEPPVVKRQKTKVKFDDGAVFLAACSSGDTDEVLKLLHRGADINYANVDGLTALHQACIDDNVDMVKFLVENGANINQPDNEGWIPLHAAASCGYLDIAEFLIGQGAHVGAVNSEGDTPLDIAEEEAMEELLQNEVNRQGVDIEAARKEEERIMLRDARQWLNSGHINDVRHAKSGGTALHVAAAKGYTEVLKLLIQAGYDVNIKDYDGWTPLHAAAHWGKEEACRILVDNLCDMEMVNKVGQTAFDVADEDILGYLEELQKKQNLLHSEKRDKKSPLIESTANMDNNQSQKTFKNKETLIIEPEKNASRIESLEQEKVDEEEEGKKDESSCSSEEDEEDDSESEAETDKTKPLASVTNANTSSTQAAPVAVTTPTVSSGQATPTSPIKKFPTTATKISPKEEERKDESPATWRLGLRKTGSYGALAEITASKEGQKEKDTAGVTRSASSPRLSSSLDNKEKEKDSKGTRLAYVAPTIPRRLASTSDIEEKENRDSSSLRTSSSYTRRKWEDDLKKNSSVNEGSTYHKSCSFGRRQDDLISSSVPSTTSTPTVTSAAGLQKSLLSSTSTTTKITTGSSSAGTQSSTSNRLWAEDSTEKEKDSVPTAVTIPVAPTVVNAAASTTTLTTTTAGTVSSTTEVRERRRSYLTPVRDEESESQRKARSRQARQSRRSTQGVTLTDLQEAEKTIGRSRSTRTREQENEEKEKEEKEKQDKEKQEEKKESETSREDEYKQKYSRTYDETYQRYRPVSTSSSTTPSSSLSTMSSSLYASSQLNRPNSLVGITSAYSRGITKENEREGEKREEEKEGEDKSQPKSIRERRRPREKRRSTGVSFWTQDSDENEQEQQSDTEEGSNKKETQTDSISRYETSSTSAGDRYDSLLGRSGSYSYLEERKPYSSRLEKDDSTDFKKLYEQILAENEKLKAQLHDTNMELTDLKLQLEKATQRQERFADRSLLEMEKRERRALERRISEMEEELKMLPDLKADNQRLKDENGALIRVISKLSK
UniProt P50336: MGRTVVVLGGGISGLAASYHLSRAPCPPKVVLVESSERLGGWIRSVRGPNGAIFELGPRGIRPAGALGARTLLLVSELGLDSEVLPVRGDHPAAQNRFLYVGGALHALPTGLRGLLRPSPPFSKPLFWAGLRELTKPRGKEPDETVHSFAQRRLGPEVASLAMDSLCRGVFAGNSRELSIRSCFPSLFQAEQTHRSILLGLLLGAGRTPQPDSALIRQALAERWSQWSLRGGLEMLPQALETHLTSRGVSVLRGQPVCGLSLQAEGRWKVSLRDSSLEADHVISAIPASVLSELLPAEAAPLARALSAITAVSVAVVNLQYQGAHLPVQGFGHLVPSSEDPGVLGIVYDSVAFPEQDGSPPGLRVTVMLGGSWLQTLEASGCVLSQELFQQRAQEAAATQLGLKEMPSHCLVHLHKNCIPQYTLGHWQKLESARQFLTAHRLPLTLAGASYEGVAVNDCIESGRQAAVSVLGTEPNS
UniProt P30154, whole entry, looked up: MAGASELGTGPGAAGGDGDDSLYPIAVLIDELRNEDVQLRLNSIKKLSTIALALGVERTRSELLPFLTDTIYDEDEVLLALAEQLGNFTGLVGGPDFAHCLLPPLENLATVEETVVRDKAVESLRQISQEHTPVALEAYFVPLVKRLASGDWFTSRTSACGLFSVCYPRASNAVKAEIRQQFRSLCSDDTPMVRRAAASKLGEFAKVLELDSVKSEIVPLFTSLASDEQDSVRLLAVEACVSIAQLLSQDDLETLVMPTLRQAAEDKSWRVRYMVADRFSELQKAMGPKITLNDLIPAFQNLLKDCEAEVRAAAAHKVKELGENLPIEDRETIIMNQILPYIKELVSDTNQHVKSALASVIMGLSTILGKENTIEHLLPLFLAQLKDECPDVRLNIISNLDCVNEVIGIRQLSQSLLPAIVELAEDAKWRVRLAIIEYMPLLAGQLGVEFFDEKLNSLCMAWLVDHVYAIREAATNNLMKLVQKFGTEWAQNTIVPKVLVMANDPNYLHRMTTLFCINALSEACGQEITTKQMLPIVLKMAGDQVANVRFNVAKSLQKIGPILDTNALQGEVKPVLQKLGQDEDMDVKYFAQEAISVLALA
UniProt P49642: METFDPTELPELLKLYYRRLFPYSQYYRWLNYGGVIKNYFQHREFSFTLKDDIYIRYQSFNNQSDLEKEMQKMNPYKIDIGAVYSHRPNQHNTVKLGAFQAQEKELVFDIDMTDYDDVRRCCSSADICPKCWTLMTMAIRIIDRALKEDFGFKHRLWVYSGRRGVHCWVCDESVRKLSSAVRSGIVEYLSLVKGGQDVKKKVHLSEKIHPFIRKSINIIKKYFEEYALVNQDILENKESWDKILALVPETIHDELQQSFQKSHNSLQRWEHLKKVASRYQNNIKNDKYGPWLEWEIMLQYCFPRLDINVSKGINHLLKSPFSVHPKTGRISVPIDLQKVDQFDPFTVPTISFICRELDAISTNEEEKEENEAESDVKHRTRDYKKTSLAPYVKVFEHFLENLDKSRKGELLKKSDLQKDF
UniProt O43314: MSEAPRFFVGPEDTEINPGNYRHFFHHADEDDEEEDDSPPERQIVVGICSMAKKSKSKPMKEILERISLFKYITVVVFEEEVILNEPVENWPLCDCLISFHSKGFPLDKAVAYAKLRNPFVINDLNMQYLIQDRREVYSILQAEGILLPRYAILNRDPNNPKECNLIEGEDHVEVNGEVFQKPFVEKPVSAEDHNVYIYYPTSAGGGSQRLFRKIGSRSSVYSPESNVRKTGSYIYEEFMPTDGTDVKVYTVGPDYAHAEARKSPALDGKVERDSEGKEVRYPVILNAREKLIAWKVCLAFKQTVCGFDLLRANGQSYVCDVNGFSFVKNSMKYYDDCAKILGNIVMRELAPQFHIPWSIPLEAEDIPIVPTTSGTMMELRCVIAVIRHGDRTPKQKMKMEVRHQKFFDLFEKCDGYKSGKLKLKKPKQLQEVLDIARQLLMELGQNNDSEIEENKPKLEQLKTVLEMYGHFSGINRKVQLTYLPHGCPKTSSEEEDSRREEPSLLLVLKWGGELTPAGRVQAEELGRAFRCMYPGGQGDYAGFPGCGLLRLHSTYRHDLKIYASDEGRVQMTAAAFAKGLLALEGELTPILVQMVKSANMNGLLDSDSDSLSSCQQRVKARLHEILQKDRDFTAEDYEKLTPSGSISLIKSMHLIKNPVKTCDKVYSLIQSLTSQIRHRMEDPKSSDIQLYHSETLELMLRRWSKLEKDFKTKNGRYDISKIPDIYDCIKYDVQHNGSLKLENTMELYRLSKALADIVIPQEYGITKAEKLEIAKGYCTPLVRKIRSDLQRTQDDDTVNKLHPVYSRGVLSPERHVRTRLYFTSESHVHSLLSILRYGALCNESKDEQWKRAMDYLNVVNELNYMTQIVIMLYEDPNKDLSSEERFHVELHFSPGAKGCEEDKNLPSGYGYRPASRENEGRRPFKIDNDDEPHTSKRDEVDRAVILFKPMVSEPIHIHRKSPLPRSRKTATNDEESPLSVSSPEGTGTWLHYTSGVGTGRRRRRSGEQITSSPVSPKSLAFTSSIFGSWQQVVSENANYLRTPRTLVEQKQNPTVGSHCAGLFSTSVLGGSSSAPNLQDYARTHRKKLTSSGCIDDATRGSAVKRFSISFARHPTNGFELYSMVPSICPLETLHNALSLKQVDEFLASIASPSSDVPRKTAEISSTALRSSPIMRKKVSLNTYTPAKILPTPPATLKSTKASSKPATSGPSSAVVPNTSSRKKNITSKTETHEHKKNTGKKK
UniProt Q9BSG0: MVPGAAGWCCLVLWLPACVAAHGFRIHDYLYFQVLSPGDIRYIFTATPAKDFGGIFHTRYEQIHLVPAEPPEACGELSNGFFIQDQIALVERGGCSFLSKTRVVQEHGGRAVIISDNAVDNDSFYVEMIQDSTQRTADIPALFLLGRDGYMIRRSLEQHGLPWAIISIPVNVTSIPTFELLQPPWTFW
UniProt O60927: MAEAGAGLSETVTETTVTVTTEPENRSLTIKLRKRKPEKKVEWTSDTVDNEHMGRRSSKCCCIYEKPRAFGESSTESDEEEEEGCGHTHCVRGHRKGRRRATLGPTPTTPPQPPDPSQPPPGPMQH
UniProt Q8TAE6: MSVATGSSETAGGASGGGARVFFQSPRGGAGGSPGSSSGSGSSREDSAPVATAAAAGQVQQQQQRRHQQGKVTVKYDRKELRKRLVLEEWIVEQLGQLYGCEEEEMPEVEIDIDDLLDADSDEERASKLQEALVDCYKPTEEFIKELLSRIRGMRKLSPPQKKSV
UniProt Q9HCU5: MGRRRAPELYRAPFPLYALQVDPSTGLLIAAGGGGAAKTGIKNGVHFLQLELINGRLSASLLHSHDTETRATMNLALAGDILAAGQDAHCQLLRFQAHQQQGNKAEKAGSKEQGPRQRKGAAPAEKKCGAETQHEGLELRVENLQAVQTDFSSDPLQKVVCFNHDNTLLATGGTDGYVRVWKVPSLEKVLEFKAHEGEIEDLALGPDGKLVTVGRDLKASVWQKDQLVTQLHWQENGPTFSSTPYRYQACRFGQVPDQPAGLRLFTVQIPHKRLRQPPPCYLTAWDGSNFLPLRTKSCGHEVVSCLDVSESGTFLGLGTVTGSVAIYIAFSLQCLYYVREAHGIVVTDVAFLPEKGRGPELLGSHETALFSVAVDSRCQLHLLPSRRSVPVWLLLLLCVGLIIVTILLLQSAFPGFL

Columns and labels:
Experiment in all cases: log2 fold change, soluble protein after heating vs DMSO (PISA); higher = thermal stabilisation; K562 lysate, 10 uM; active = over 0.2 and 3.5 SD of the protein, either way, in both replicates (recomputed)
nilotinib = compound: Cc1cn(-c2cc(NC(=O)c3ccc(C)c(Nc4nccc(-c5cccnc5)n4)c3)cc(C(F)(F)F)c2)cn1 [nilotinib]
In short: (§1)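 Pellets of K562 cells were dounce-homogenised in PBS pH 7.4 with 1 mM MgCl2, and the crude extract was held at 1 mg/mL protein for a 30 min treatment with 10 μM compound. Aliquots were heated for 3 min over 48°C-58°C and pooled before NP-40 was added to 0.5% at 4°C. The supernatant from 21,000xg for 90 min was quantified by TMTpro 16plex LC-MS/MS with channel sums equalised. Values are reported from duplicates as log-two fold change in thermal stability relative to solvent controls.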

[1] = compound: Cc1nc(Nc2n[nH]c3c2CN(C(=O)N[C@H](CN(C)C)c2ccccc2)C3(C)C)c2sccc2n1
In short: as §1

dasatinib = compound: Cc1nc(Nc2ncc(C(=O)Nc3c(C)cccc3Cl)s2)cc(N2CCN(CCO)CC2)n1 [dasatinib]
In short: as §1

[2] = compound: Cc1ncc(-c2ccnc(Nc3ccc(S(C)(=O)=O)cc3)n2)n1C(C)C
In short: as §1

[3] = compound: Cn1cc(-c2ccc3c(c2)CCN3C(=O)Cc2cccc(C(F)(F)F)c2)c2c(N)ncnc21
In short: as §1

quisinostat = compound: Cn1cc(CNCC2CCN(c3ncc(C(=O)NO)cn3)CC2)c2ccccc21 [quisinostat]
In short: as §1

tipifarnib = compound: Cn1cncc1[C@@](N)(c1ccc(Cl)cc1)c1ccc2c(c1)c(-c1cccc(Cl)c1)cc(=O)n2C [tipifarnib]
In short: as §1

[4] = compound: NC(=O)Nc1cc(-c2cccc(F)c2)sc1C(=O)N[C@H]1CCCNC1
In short: as §1

[5] = compound: NC(=O)c1cnc(N[C@@H]2CCCC[C@@H]2N)nc1Nc1cccc(-n2nccn2)c1
In short: as §1

[6] = compound: NC1(c2ccc(-c3nc4ccn5c(=O)[nH]nc5c4cc3-c3ccccc3)cc2)CCC1
In short: as §1

[7] = compound: NCC(=O)Nc1ccc(-n2nc(C(F)(F)F)cc2-c2ccc3c(ccc4ccccc43)c2)cc1
In short: as §1

vorinostat = compound: O=C(CCCCCCC(=O)Nc1ccccc1)NO [vorinostat]
In short: as §1

silmitasertib = compound: O=C(O)c1ccc2c(c1)nc(Nc1cccc(Cl)c1)c1ccncc12 [silmitasertib]
In short: as §1

[8] = compound: O=C1NC(=O)C(c2cnc3ccccn23)=C1c1cn2c3c(cc(F)cc13)CN(C(=O)N1CCCCC1)CC2
In short: as §1

entospletinib = compound: c1cn2cc(-c3ccc4cn[nH]c4c3)nc(Nc3ccc(N4CCOCC4)cc3)c2n1 [entospletinib]
In short: as §1

Target | log2 fold change (nilotinib) | log2 fold change [1] | log2 fold change (dasatinib) | log2 fold change [2] | log2 fold change [3] | log2 fold change (quisinostat) | log2 fold change (tipifarnib) | log2 fold change [4] | log2 fold change [5] | log2 fold change [6] | log2 fold change [7] | log2 fold change (vorinostat) | log2 fold change (silmitasertib) | log2 fold change [8] | log2 fold change (entospletinib)
PPP2R1A (UniProt P30153) | inactive: 0.026 | inactive: -0.008 | inactive: -0.024 | inactive: 0.01 | inactive: 0.02 | inactive: 0.085 | inactive: 0.008 | inactive: -0.011 | inactive: -0.001 | inactive: 0.015 | inactive: -0.006 | inactive: -0.101 | inactive: 0.017 | inactive: -0.017 | inactive: 0.002
PRKAR2B (UniProt P31323) | inactive: 0.023 | inactive: -0.078 | inactive: -0.104 | inactive: 0.013 | inactive: 0.031 | inactive: 0.073 | inactive: 0.019 | inactive: -0.1 | inactive: -0.028 | inactive: 0.013 | inactive: 0.014 | inactive: -0.093 | inactive: 0.009 | inactive: 0.025 | inactive: -0.055
PPP2CB (UniProt E5RHC1) | inactive: -0.156 | inactive: -0.014 | inactive: -0.076 | inactive: 0.175 | inactive: -0.05 | inactive: -0.041 | inactive: 0.202 | inactive: -0.022 | inactive: -0.229 |  |  |  |  | inactive: -0.013 | 
PPP1R18 (UniProt Q6NYC8) | inactive: -0.004 | inactive: 0.017 | inactive: 0.029 | inactive: 0.004 | inactive: -0.004 | inactive: -0.027 | inactive: -0.02 | inactive: -0.027 | inactive: 0.027 | inactive: 0.013 | inactive: 0.009 | inactive: -0.005 | inactive: 0.008 | inactive: -0.007 | inactive: -0.003
PPP2CA (UniProt P67775) | inactive: -0.009 | inactive: 0.037 | inactive: 0.017 | inactive: 0.009 | inactive: 0.057 | inactive: 0.185 | inactive: 0.024 | inactive: -0.093 | inactive: -0.008 | inactive: 0.023 | inactive: -0.079 | inactive: 0.076 | inactive: -0.021 | inactive: -0.004 | inactive: 0
PPP2R5C isoform 2 (UniProt Q13362) | inactive: -0.028 | inactive: 0.021 | inactive: -0.02 | inactive: -0.068 | inactive: 0.028 | active: 0.347 | inactive: 0.028 | inactive: -0.284 |  | inactive: -0.051 | inactive: -0.004 | inactive: -0.12 | inactive: 0.015 | inactive: 0.086 | 
PPP1R12A (UniProt O14974) | inactive: -0.011 | inactive: 0.012 | inactive: -0.007 | inactive: -0.024 | inactive: 0.005 | inactive: -0.043 | inactive: 0.019 | inactive: -0.006 | inactive: 0.005 | inactive: -0.004 | inactive: 0.019 | inactive: -0.018 | inactive: 0.023 | inactive: -0.006 | inactive: 0.014
PPOX (UniProt P50336) | inactive: 0.227 | inactive: -0.001 | inactive: 0.086 | inactive: 0.054 | inactive: -0.004 | inactive: 0.129 | inactive: -0.012 | inactive: -0.019 | inactive: -0.008 | inactive: -0.036 | inactive: 0 | inactive: -0.142 | inactive: 0.11 | inactive: 0.016 | inactive: 0
PPP2R1B isoform 2 (UniProt P30154) | inactive: 0.015 | inactive: 0.005 | inactive: -0.005 | inactive: -0.022 | inactive: 0.038 | inactive: -0.033 | inactive: 0.013 | inactive: 0.041 | inactive: 0.069 | inactive: 0.034 | inactive: 0.065 | inactive: -0.074 | inactive: 0.008 | inactive: 0.01 | inactive: 0.006
PRIM1 (UniProt P49642) | inactive: 0 | inactive: -0.011 | inactive: -0.05 | inactive: -0.006 | inactive: 0.019 | inactive: 0.014 | inactive: -0.022 | inactive: 0.028 | inactive: 0.001 | inactive: -0.031 | inactive: -0.015 | active: -0.284 | inactive: 0.049 | inactive: 0.024 | inactive: 0.035
PPIP5K2 (UniProt O43314) | inactive: -0.018 | inactive: -0.005 | inactive: -0.029 | inactive: 0.091 | inactive: 0.005 | inactive: -0.032 | inactive: 0.047 | inactive: 0.114 | inactive: 0.1 | inactive: 0.004 | inactive: -0.01 | inactive: -0.158 | inactive: 0.023 | inactive: 0.017 | inactive: 0.002
PRADC1 (UniProt Q9BSG0) | inactive: 0.1 | inactive: -0.1 | inactive: 0.019 | inactive: -0.047 | inactive: 0.053 | inactive: -0.007 | inactive: 0.296 | inactive: -0.031 | inactive: -0.016 | inactive: 0.013 |  | inactive: 0.07 | inactive: -0.041 | inactive: -0.012 | 
PRKAR1B (UniProt P31321) | inactive: 0.011 | inactive: -0.056 | inactive: -0.044 | inactive: 0.016 | inactive: 0.243 | inactive: 0.191 | inactive: 0.022 | inactive: -0.09 | inactive: 0.003 | inactive: -0.008 | inactive: -0.114 | inactive: -0.07 | inactive: 0.058 | inactive: -0.057 | inactive: 0.009
PPP1R11 (UniProt O60927) | inactive: -0.03 | inactive: 0.035 | inactive: -0.051 | inactive: 0.074 | inactive: -0.055 | inactive: -0.131 | inactive: -0.001 | inactive: 0.01 | inactive: -0.067 | inactive: 0.078 |  | active: -0.31 | inactive: 0.034 | inactive: 0.028 | inactive: -0.029
PPP1CA (UniProt P62136) | inactive: 0 | inactive: -0.021 | inactive: 0.004 | inactive: 0.006 | inactive: 0.02 | inactive: -0.039 | inactive: 0.015 | inactive: -0.023 | inactive: -0.003 | inactive: 0.008 | inactive: 0.03 | inactive: 0.039 | inactive: -0.005 | inactive: -0.048 | inactive: -0.05
PREPL (UniProt Q4J6C6) | inactive: -0.024 | inactive: 0.018 | inactive: 0.012 | inactive: -0.02 | inactive: 0.004 | inactive: 0.014 | inactive: 0.015 | inactive: 0.005 | inactive: -0.02 | inactive: 0.002 | inactive: 0.018 | inactive: 0.023 | inactive: 0.034 | inactive: 0.01 | inactive: -0.026
PPP1R14C (UniProt Q8TAE6) | inactive: 0.075 | inactive: -0.003 | inactive: 0.105 | inactive: -0.043 | inactive: -0.173 |  | inactive: 0.073 |  | inactive: -0.184 |  | inactive: -0.061 |  |  |  | inactive: -0.046
PROSER1 (UniProt Q86XN7) | inactive: 0.109 | inactive: 0.056 | inactive: -0.224 | inactive: -0.036 | inactive: 0.011 |  | inactive: -0.077 |  | inactive: 0.05 | inactive: 0.175 | inactive: -0.015 | inactive: -0.513 | inactive: -0.091 |  | 
PREB (UniProt Q9HCU5) | inactive: -0.013 | inactive: 0.078 | inactive: 0.005 | inactive: 0.062 | inactive: -0.012 | inactive: -0.038 | inactive: 0.035 | inactive: 0.04 | inactive: -0.008 | inactive: -0.026 | inactive: 0.044 | inactive: 0.15 | inactive: -0.01 | inactive: -0.017 | inactive: 0.01

Fetched one by one from the entries so far, 2 records:
Target | log2 fold change (nilotinib) | log2 fold change [1] | log2 fold change (dasatinib) | log2 fold change [2] | log2 fold change [3] | log2 fold change (quisinostat) | log2 fold change (tipifarnib) | log2 fold change [4] | log2 fold change [5] | log2 fold change [6] | log2 fold change [7] | log2 fold change (vorinostat) | log2 fold change (silmitasertib) | log2 fold change [8] | log2 fold change (entospletinib)
PRADC1 (UniProt Q9BSG0) | inactive: 0.1 | inactive: -0.1 | inactive: 0.019 | inactive: -0.047 | inactive: 0.053 | inactive: -0.007 | inactive: 0.296 | inactive: -0.031 | inactive: -0.016 | inactive: 0.013 |  | inactive: 0.07 | inactive: -0.041 | inactive: -0.012 | 
PPP2CA (UniProt P67775) | inactive: -0.009 | inactive: 0.037 | inactive: 0.017 | inactive: 0.009 | inactive: 0.057 | inactive: 0.185 | inactive: 0.024 | inactive: -0.093 | inactive: -0.008 | inactive: 0.023 | inactive: -0.079 | inactive: 0.076 | inactive: -0.021 | inactive: -0.004 | inactive: 0
